Eight molecules from publication PMC12097128 can be followed below.

The chains behind the UniProt entries cited, without tags or fusion partners. Where a name states a change or a piece, a line headed by the entry shows the natural chain unless it says otherwise. A line that says so, or that is headed by a name, gives the form on record, which may keep a tag or linker. Residues count along the entry.
UniProt O09172: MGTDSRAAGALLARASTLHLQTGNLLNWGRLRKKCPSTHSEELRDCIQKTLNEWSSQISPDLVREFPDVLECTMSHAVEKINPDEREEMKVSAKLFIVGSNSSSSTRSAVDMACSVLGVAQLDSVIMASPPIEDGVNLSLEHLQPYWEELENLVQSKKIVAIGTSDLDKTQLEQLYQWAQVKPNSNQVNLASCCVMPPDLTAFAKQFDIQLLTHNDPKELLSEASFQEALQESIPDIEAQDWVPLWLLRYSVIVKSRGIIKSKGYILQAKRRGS
UniProt P05161: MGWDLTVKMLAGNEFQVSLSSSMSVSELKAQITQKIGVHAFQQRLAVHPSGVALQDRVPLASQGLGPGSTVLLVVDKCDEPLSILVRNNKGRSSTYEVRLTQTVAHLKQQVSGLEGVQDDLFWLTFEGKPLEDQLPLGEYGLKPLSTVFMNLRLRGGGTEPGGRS
Myc-ISG15-AA (P05161, form named): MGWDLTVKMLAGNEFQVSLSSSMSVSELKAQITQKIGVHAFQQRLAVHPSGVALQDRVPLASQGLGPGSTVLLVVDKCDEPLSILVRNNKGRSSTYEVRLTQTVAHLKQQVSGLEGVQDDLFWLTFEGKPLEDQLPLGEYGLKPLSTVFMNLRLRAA
UniProt Q64339, residues 1-155: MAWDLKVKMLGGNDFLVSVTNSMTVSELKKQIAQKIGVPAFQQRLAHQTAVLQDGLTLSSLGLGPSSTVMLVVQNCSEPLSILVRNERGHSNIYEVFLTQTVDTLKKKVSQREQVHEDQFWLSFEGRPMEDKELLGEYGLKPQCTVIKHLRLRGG

Positions count from the first letter of the chain named. No constants are given. Whether binding was seen depends on the method and setting. In cells and extracts the contact can be indirect. Some binding calls cover weakened binding; strength is not graded here. For some assays here: Sequences can lack the tags named with a protein.

Assay [1] concerns the target T1, Flag-GCLM (Flag-tagged glutamate-cysteine ligase modifier subunit) (UniProt P48507).
T1 sequence: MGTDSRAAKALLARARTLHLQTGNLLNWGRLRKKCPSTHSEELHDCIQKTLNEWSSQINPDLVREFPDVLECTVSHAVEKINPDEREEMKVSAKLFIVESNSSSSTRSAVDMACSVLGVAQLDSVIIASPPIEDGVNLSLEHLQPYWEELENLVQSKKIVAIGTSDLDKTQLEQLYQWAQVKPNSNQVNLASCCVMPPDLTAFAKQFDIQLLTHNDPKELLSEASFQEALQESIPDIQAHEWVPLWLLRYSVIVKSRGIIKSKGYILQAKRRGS
Nature of the assay: co-IP; ISG15 truncation constructs 1-80 and 1-120 with GCLM (Figure S4E); cells and antibody of the precipitation not shown.

In assay [2] the target is T1, Flag-GCLM (Flag-tagged glutamate-cysteine ligase modifier subunit). Nature of the assay: co-IP; HEK293T co-transfected with Flag-GCLM and Myc- or HA-tagged ISG15 constructs; anti-Flag immunoprecipitates blotted with anti-Flag and anti-Myc or anti-HA; lysates with antibody and Dynabeads Protein G overnight at 4 °C, washed with pre-lysis buffer containing 50 mM NaCl.
For assay [3], the target named is T2, Gclm (endogenous, mouse HCC tissue) (mouse (endogenous in HCC tissue)) (UniProt O09172).
T2 sequence: T1 sequence with K9G, R16S, H44R, N59S, V74M, E99G, I127M, Q238E, H240Q, E241D
The assay is described as follows: co-IP; endogenous proteins in mouse HCC tissue lysate; anti-Gclm immunoprecipitate blotted with anti-Gclm and anti-Isg15.

The target of assay [4] is T3, Gclc (endogenous, mouse HCC tissue) (mouse (endogenous in HCC tissue)) (UniProt P97494).
T3 sequence: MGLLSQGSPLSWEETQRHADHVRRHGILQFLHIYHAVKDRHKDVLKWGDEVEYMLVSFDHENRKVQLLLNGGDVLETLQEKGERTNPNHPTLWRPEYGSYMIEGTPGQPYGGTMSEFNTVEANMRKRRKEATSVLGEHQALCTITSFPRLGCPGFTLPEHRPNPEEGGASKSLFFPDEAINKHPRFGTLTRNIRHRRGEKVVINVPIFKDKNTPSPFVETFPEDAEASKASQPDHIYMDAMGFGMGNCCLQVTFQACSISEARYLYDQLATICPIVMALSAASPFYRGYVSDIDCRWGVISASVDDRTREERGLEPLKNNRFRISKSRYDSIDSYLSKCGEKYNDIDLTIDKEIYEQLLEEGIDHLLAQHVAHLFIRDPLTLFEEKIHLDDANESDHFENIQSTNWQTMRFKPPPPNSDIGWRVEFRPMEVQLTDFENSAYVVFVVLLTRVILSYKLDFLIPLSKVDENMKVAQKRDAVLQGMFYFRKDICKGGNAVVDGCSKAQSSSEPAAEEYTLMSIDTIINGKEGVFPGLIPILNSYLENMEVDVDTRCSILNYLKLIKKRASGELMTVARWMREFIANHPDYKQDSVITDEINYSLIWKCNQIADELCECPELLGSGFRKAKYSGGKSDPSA
The assay is described as follows: co-IP; endogenous proteins in pooled mouse HCC samples (Isg15-WT or Isg15-KO, NCD or HFD); anti-Gclc immunoprecipitates blotted with anti-Gclm and anti-Gclc.

In assay [5] the target is T4, GCLC overexpressed in Hep3B cells (HA-tagged GCLC) (UniProt P48506).
T4 sequence: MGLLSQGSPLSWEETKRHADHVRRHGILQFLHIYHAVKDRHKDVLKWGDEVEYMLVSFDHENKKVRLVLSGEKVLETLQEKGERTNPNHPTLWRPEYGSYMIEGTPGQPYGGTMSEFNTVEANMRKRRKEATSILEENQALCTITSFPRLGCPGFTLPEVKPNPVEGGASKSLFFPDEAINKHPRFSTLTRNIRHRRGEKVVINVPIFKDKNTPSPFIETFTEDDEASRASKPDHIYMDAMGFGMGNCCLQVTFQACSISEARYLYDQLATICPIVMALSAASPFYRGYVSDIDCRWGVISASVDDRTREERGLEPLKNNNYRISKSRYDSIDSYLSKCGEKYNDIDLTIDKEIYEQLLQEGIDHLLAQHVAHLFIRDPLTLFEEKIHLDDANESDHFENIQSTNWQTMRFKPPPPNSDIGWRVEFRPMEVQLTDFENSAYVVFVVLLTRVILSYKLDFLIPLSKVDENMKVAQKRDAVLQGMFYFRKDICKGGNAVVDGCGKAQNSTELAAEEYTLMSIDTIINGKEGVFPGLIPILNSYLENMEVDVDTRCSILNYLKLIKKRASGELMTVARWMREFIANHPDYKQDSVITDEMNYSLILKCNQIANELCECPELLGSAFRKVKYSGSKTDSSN
The assay is described as follows: co-IP; Hep3B cells overexpressing GCLM and GCLC with or without exogenous ISG15 (Figure S4I); antibody of the precipitation not shown.

Assay [6] concerns the target T5, GCLC (endogenous, Hep3B and HepG2 cells) (human (endogenous in Hep3B and HepG2)) (UniProt P48506).
T5 sequence: T4 sequence
The assay is described as follows: co-IP; endogenous GCLC and GCLM in Hep3B and HepG2 lysates; anti-GCLC immunoprecipitates blotted for GCLC, GCLM and ISG15; cells ISG15-WT, ISG15-KO or ISG15/UBA7 dual-KO, with or without 100 µM PA for 24 h, with or without transfected HA-ISG15-GG, -AA, -84AAA or -Δ85-93.

In the case of “HA-ISG15-1-120 (from UniProt P05161 1-120) (domain or fragment)”, the binding entry in assay [1] was “binds”.
As to HA-ISG15-GG (from UniProt P05161 1-157), the binding entry in assay [2] is “binds”.
For “Isg15 (endogenous, mouse HCC tissue) (from UniProt Q64339 1-155)”, in assay [3], the binding entry is “binds”.
On to “Myc-ISG15-AA (from UniProt P05161 1-157)”, for which the binding entry in assay [2] is “binds”.
For the molecule “Myc-ISG15-GG (from UniProt P05161 1-157)”, the binding result in assay [2] is on record as “binds”.

B1: Gclm (endogenous, mouse HCC tissue) (protein, UniProt O09172 1-274)
chain: T1 sequence with K9G, R16S, H44R, N59S, V74M, E99G, I127M, Q238E, H240Q, E241D
On to B1, for which the binding entry in assay [4] is given as “binds”.

B2: GCLM overexpressed in Hep3B cells (Flag-tagged GCLM) (protein, UniProt P48507 1-274)
chain: T1 sequence
Consider B2, for which the binding entry in assay [5] is on record as “binds”.

B3: GCLM (endogenous, Hep3B and HepG2 cells) (protein, UniProt P48507 1-274)
chain: T1 sequence
B3: the binding entry in assay [6] was “binds”.
